These are yes or no findings as the source states them, for the method shown. A result given as binding can be weak or reduced; the word gives no strength. Tags and fused reporters may be left off the sequences shown.

The target of the assay is microtubules assembled from HeLa tubulin (human (endogenous in HeLa)). Put plainly: TIRF microscopy of a fluorescent binder on immobilized microtubules; Taxol-stabilized labeled microtubules immobilized on a kinesin-3 (Kif1a, 1-357) motor bed without ATP, incubated with 5 µM A1aY1-GFP; GFP intensity on the filaments measured; both purified.

B1: A1aY1-GFP (designed binder)
chain: MATVKFKYKGEEKQVDISKILSVGRYGKLIHFLYDLGGGKAGMGMVSEKDAPKELLQMLEKQKK
As to B1, the binding entry is reported as “binds”.
